The assay concerns the target GST fusion protein with full-length S. aureus WalR (1–233) (Staphylococcus aureus NCTC8325) (UniProt Q2G2U6). Kind of assay: pull-down; GST-tagged WalR protein held on glutathione agarose beads, His-tagged WalK as prey, equal molar amounts (~3 μl of 50 μM each) in 1 ml of 20 mM Tris-HCl pH 8.0, 200 mM NaCl, 5% glycerol, 2 mM EDTA, 2 h at 4°C; SDS-PAGE stained with CBB; both purified.

Amino acid sequences for entries named in this document (tags omitted).
UniProt Q2G2U6: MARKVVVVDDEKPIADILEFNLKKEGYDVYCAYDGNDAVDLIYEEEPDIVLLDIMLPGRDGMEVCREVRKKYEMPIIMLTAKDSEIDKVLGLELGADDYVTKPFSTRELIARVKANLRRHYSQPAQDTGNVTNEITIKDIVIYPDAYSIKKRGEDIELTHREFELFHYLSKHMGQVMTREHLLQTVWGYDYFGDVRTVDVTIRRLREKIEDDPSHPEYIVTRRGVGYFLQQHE

Results are given in words; binding and its absence hold for the method and conditions named.

On to “S. aureus WalK (364–608) Δtail (the last 7 amino acids deleted) (from UniProt Q2G2U4 364-601) (domain or fragment)”, for which the binding result is recorded as “no binding”.

(Values after article PMC9087282, “The W-Acidic Motif of Histidine Kinase WalK Is Required for Signaling and Transcriptional Regulation in Streptococcus mutans” (Frontiers in Microbiology, 2022).)
